These are yes or no findings as the source states them, for the method shown. Binding calls can cover weak binding; strength is not graded here. Where a sequence is shown, tags or fusion partners need not be part of it. For part of these data: Binding seen in cells or lysates may run through a third protein.
Assays:
[1] = molecular target: recombinant hsc70 (StressGen Biotechnological Corp); test: in vitro, purified proteins
[2] = molecular target: recombinant hsc70 (StressGen Biotechnological Corp); test: co-immunoprecipitation of purified protein pairs
[3] = molecular target: recombinant hsc70 (StressGen Biotechnological Corp); test: co-immunoprecipitation of purified protein pairs, anti-His blot

Measured: binding

B1: recombinant His-tagged full-length hsp110 expressed in E. coli (Example 7) (protein, UniProt Q60446 1-858, looked up)
chain: MSVVGLDVGSQSCYIAVARAGGIETIANEFSDRCTPSVISFGPKNRTIGVAAKNQQITHANNTVSSFKRFHGRAFSDPFIQKEKESLSYDLVPMKNGGVGIKVMYMDEEHLFSVEQITAMLLTKLKETAENNLKKPVTDCVISVPSFFTDAERRSVLDAAQIVGLNCLRLMNDMTAVALNYGIYKQDLPNADEKPQGSGVCGHGPSSFQVSACAFNKGKLKVLGTAFDPFLGGKNFDEKLVEHFCAEFKTKYKLDAKSKIRALLRLHQECEKLKKLMSSNSTDLPLNIECFMNDKDVSAKMNRSQFEELCAELLQKIEVPLHSLMEQTHLKTEDVSAIEIVGGATRIPAVKERIAKFFGKDVSTTLNADEAVARGCALQCAILSPAFKVREFSVTDAVPFPISLVWNHDSEETEGVHEVFSRNHAAPFSKVLTFLRRGPFELEAFYSDPQGVPYPEAKIGRFVVQNVSAQKDGEKSKVKVKVRVNTHGIFTISTASMVEKVPTEEDDGSSVEADMECPNQKPAESSDVDKNSQQDNSEAGTQPQVQTDGQQTSQSPPSPELPSEENKIPDADKANEKKVDQPPEAKKPKIKVVNVELPVEANLVWQLGRDLLNMYIETEGKMIMQDKLEKERNDAKNAVEECVYEFRDKLCGPYEKFICQQEHEKFLRLLTETEDWLYEEGEDQAKQAYIDKLEELMKMGNPVKVRFQEAEERPKVLEELGQRLQHYAKIAADFRSKDEKYNHIDESEMKKVEKSVNEVMEWMNNVMNAQAKRSLDQDPVVRTHEIRAKVKELNNVCEPVVNQPKPKIESPKLERTPNGPNLDKKEDLEGKDNFGAEAPHQNGECHPNEKGSVNMDLD
binds: all assays above

Reference: patent US20080103095A1
